Reference: article PMC7819943, “Rice protein-binding microarrays: a tool to detect cis-acting elements near promoter regions in rice”
The other results are listed elsewhere or left out.

By UniProt entry, the sequences of proteins in these tests, tags left out.
UniProt Q0JBA9, entry or part of it: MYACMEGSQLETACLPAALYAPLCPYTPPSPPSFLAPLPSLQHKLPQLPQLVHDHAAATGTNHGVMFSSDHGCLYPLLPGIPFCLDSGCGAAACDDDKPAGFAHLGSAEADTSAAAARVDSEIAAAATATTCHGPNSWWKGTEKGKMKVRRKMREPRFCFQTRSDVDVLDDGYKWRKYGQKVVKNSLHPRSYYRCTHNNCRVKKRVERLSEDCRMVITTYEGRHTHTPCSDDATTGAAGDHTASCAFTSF

The sequences below were run against OsWRKY34 (Oryza sativa, UniProt Q0JBA9 1-250) (assay: protein-binding microarray (RPBM); PBS, 2% BSA, 51.3 ng/ul salmon testes DNA, 50 uM zinc acetate, 200 nM TF, 25 C, 1 h; high values mean tight binding). Conditions: protein: recombinant; tags: N-terminal polyhistidine and DsRed monomer fusion (pET32a); label: CyDye5-dUTP incorporated in the synthesized complementary strand; 3' TTTTT single-stranded linker to array surface; dsDNA, one strand shown.
Method in brief: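 Binding signal here means per-feature fluorescence intensity in arbitrary units. The values were read on an Axon 4000B scanner after a custom Agilent array, double-stranded by primer extension with Cy5-dUTP, was incubated with 200 nM protein at 25 °C for 1 h in PBS with 2% BSA, salmon testes DNA and 50 µM zinc acetate, then washed. The proteins were transcription factors with an N-terminal polyhistidine tag and DsRed, expressed in E. coli BL21-CodonPlus and purified on Ni–NTA.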
For “ATTTCACCCTTATTTTGCTGCGCGTATACGTTTGAATTCTCGGAGTCACCTAGTGCAG”, the binding signal was 11500 fluorescence intensity (a.u.).
In the case of “TGCCCCAACAGTAGTGTCCTTTGCCTTGTATTCTCCTCTCCGGAGTCACCTAGTGCAG”, the binding signal is reported as 8500 fluorescence intensity (a.u.).
With “GAGAGAGGATTTTTAGGGTTTAGTTGTCTGCACGAATCTTCGGAGTCACCTAGTGCAG” the binding signal was 8690 fluorescence intensity (a.u.).
In the case of “ATTCACACCCACACCAAGCACCAACCAAACCTTGCCCTATCGGAGTCACCTAGTGCAG”, the binding signal is reported as 8290 fluorescence intensity (a.u.).
For “GCTGTTTCTCCCTGCCTTGGATGCTTTTATCTATTGATGTCGGAGTCACCTAGTGCAG”, the binding signal was 12200 fluorescence intensity (a.u.).
“AGTATAATGGTGGGTGGTATTTCATTTGGATCTTTGAACCCGGAGTCACCTAGTGCAG” was tested, and the binding signal was 8850 fluorescence intensity (a.u.).
With “TCGTCGCCTCCGCCTCCGCCCACAAACCACATTTTTTCTTCGGAGTCACCTAGTGCAG” the binding signal was 15300 fluorescence intensity (a.u.).
“GATTTCAGAAGGCGATTTTTGGTTCTTTAGTTCAGAGTTCCGGAGTCACCTAGTGCAG” was tested, and the binding signal was 8550 fluorescence intensity (a.u.).
For “GCCCAAGTCCCCAGAGCCATCGTCCTATCCAAATTTTACACGGAGTCACCTAGTGCAG”, the binding signal was 8140 fluorescence intensity (a.u.).
For “GCGCTCCATCCATGGCTTTCCCGTCTCCGCCCATAAATACCGGAGTCACCTAGTGCAG”, the binding signal was 10400 fluorescence intensity (a.u.).
For “ACTTTTTATTTAGGTTTTGTGGCGTGCTGGTAGCTCCTTCCGGAGTCACCTAGTGCAG”, the binding signal was 8680 fluorescence intensity (a.u.).
In the case of “CCTTGTCCAATGCTTTAGTCGTTGTTTTCTACATTACTCACGGAGTCACCTAGTGCAG”, the binding signal is reported as 11200 fluorescence intensity (a.u.).
For “ATATACTCCCACCATTTCATAATATAAGGCACAACTTTTTCGGAGTCACCTAGTGCAG”, the binding signal was 9510 fluorescence intensity (a.u.).
With “TTCCTTTGAAGGCTAGCATATGTGTGGTGTTTGCAGTCCACGGAGTCACCTAGTGCAG” the binding signal was 9530 fluorescence intensity (a.u.).
For “TTGCTTCACGTCTCCTCTTCATGTGATCTGAGGCGCTCGCCGGAGTCACCTAGTGCAG”, the binding signal was 8480 fluorescence intensity (a.u.).
With “AGTGGGGCCTACCTGTCAGTGACTCCACCCCTATATTCTCCGGAGTCACCTAGTGCAG” the binding signal was 9950 fluorescence intensity (a.u.).
“CTTCTTCTTTTTATTTGGCTCCGCTTATAAATTTTATTGTCGGAGTCACCTAGTGCAG” was tested, and the binding signal was 8670 fluorescence intensity (a.u.).
“CCCACGTGGGCCCCACCATTTTTATTAATATGTGTGTGAACGGAGTCACCTAGTGCAG” was tested, and the binding signal was 8340 fluorescence intensity (a.u.).
With “GTCCACACCATCTAGCAGTATATGTCCTACGTCAGGATCACGGAGTCACCTAGTGCAG” the binding signal was 9070 fluorescence intensity (a.u.).
With “CACATTTATACATCTCTCATATACGAGCTTACGAAAAACGCGGAGTCACCTAGTGCAG” the binding signal was 8070 fluorescence intensity (a.u.).
For “TTTCCGTCTCTTTTACCTAAGTCTCGCGTATATCCTAGTACGGAGTCACCTAGTGCAG”, the binding signal was 8120 fluorescence intensity (a.u.).
For “AGCCGTCTCATTTCCGTTTCGACATCCTTCTGAATTTCAACGGAGTCACCTAGTGCAG”, the binding signal was 9220 fluorescence intensity (a.u.).
With “GTAACTGCTTCCTCGTCGTCCCAAATCAAACTTTGCCATGCGGAGTCACCTAGTGCAG” the binding signal was 9230 fluorescence intensity (a.u.).
For “CTTGAGTATTATATTGTTCGTGTTCCATATTATTTTCTCCCGGAGTCACCTAGTGCAG”, the binding signal was 11100 fluorescence intensity (a.u.).
With “TGTTCAAAGTCAAACTACTCTAAGTTTGACTAAGTTTATACGGAGTCACCTAGTGCAG” the binding signal was 13000 fluorescence intensity (a.u.).
In the case of “GGGAAGAAGAATCCGGATTCTGTTGCGGTGGTTGTTGGAACGGAGTCACCTAGTGCAG”, the binding signal is reported as 9380 fluorescence intensity (a.u.).
“ACAATCCCTACTCCCACCCGCGCATCTTCGTAATATTCGCCGGAGTCACCTAGTGCAG” was tested, and the binding signal was 9390 fluorescence intensity (a.u.).
With “CCCGCCCGCACGCACGCATCCACCCACCCACGACCAGCGCCGGAGTCACCTAGTGCAG” the binding signal was 8180 fluorescence intensity (a.u.).
In the case of “CTGTTCCAACTTTAATCTCTCCAGCCGATTCCTTCCATCACGGAGTCACCTAGTGCAG”, the binding signal is reported as 8680 fluorescence intensity (a.u.).
“AGCGCCACAATTTCCAATTCCCTGCAGATCCCTTCATCTCCGGAGTCACCTAGTGCAG” was tested, and the binding signal was 9910 fluorescence intensity (a.u.).
With “ATGCTACCTGAATCCCTCTGTCTCTGCCGCTGTAGCGCCGCGGAGTCACCTAGTGCAG” the binding signal was 10900 fluorescence intensity (a.u.).
With “GGACCAAGTCTACATGTCATGTCATCGGAAATCACTCCCGCGGAGTCACCTAGTGCAG” the binding signal was 8340 fluorescence intensity (a.u.).
“CTCTGAATGGCCTTGTCACCCTTTTTATTCATTCATGCTCCGGAGTCACCTAGTGCAG” was tested, and the binding signal was 9200 fluorescence intensity (a.u.).
“GATATGTCTCATGGACACATACTAATCGCACTATACTGTACGGAGTCACCTAGTGCAG” was tested, and the binding signal was 9100 fluorescence intensity (a.u.).
With “GTGTCTGTCACCTGCAGGATTTGTAGTTGAATGTAGCATGCGGAGTCACCTAGTGCAG” the binding signal was 8140 fluorescence intensity (a.u.).
In the case of “TCAGTTTGTTTGTCATCCCTATATCACAATGATTTTCGGCCGGAGTCACCTAGTGCAG”, the binding signal is reported as 8480 fluorescence intensity (a.u.).
With “TTTATTCGTACTGCGTCGCCATCCTTGGATAGTGGTTAGTCGGAGTCACCTAGTGCAG” the binding signal was 8450 fluorescence intensity (a.u.).
With “CTCGCGTCGCCTCGGGAGCCACCGTCGCCGGCCGCGCGCGCGGAGTCACCTAGTGCAG” the binding signal was 9160 fluorescence intensity (a.u.).
With “GCTGGTACCCTTATGGTTGATCTGTAGTAGTCATCATCACCGGAGTCACCTAGTGCAG” the binding signal was 11900 fluorescence intensity (a.u.).
“TCTCCAGTCCTTGTTCGCCACGACACGTCTTACTTGACTGCGGAGTCACCTAGTGCAG” was tested, and the binding signal was 11300 fluorescence intensity (a.u.).
For “CGTCCTCGGTCACTTTTATTCTATTGACGTAACCGAGGTCCGGAGTCACCTAGTGCAG”, the binding signal was 8070 fluorescence intensity (a.u.).
For “CTTGTTCTTGCCCAATCCTAGTAGAAGCGCCTAACTTGTCCGGAGTCACCTAGTGCAG”, the binding signal was 9450 fluorescence intensity (a.u.).
